Reference: the supplement of paper PMC10849652
This is one part of the list.

Protein sequences, listed by entry. Tags and fused reporters are not part of them. Lines headed by an entry give the natural chain unless they say otherwise; changes in a name come on top.
UniProt Q9NV35: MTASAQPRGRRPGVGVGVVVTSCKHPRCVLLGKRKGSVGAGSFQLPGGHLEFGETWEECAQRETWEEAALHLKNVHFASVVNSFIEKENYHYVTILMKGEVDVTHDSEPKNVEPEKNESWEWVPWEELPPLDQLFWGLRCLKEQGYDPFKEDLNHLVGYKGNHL
UniProt P49790, whole entry, looked up: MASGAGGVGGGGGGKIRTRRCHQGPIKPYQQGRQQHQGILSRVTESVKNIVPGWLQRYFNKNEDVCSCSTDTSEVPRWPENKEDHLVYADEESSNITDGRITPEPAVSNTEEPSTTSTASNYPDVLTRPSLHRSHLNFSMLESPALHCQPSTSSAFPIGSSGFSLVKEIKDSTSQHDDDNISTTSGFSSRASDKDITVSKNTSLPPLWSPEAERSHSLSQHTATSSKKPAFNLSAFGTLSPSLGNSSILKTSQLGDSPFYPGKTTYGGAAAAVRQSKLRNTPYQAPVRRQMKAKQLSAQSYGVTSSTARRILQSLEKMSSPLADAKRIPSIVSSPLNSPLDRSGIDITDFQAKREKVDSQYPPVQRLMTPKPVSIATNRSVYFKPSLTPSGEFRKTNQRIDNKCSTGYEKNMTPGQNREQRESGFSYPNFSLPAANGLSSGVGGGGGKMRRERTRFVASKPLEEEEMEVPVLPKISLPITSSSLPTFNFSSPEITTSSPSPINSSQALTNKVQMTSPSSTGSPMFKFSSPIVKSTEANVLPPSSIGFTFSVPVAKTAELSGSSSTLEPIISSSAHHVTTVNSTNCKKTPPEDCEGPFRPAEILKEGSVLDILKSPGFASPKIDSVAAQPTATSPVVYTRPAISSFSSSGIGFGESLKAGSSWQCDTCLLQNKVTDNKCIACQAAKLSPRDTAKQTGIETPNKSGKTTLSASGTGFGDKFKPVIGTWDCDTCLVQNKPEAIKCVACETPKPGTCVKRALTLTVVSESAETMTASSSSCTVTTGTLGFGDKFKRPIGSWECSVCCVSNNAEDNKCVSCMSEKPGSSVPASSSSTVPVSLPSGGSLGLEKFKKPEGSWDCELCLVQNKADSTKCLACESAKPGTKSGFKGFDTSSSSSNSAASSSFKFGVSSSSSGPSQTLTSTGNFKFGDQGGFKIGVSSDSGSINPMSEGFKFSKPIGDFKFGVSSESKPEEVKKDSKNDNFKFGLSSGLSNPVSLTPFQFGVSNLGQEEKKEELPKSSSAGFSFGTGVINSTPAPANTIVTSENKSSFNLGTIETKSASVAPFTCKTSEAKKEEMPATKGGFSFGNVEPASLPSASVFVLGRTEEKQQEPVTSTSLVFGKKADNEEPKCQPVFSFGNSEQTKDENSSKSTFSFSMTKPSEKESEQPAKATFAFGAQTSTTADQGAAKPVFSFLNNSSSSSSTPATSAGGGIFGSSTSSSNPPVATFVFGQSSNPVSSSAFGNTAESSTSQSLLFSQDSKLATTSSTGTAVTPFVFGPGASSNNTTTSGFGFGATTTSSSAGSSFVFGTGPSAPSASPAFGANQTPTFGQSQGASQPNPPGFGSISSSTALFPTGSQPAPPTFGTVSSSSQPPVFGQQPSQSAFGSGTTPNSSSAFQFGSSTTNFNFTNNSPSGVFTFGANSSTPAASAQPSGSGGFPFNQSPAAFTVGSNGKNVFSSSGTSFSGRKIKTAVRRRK
UniProt Q9NPE3: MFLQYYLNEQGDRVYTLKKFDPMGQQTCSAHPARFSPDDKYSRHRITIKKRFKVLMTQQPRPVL
UniProt P61916: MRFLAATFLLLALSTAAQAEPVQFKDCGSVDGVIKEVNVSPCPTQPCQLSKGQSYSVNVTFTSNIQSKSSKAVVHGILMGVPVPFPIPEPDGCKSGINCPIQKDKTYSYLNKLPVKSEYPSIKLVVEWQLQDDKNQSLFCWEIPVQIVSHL
UniProt Q96MG7: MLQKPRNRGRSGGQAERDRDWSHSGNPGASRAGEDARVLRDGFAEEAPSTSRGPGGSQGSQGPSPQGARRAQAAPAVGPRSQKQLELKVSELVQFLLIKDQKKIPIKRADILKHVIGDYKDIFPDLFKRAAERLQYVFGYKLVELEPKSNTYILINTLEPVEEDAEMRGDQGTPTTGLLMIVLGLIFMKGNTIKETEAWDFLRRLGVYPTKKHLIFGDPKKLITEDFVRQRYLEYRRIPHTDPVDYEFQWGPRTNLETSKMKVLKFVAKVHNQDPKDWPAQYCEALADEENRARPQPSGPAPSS
UniProt Q9Y6R0: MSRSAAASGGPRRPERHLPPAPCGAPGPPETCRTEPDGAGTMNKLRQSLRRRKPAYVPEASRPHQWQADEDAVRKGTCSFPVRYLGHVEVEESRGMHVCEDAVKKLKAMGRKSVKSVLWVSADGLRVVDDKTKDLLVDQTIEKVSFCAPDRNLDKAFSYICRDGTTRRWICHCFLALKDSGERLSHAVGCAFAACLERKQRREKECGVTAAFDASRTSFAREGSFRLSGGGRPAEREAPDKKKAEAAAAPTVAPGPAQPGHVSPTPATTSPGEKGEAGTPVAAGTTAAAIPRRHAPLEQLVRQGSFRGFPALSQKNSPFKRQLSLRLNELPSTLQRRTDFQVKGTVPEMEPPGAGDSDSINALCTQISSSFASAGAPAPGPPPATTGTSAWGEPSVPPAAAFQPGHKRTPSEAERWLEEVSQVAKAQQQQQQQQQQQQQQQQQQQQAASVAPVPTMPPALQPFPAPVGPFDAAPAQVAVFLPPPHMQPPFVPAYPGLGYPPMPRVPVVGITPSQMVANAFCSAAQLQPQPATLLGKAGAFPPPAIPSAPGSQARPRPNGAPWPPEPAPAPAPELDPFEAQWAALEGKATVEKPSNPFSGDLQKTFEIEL
UniProt P48645: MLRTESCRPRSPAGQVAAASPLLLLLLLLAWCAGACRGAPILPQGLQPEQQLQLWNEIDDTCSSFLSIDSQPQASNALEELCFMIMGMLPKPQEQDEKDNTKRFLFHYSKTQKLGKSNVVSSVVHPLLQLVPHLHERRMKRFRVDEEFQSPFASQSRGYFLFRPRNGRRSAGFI
UniProt Q8WUM0: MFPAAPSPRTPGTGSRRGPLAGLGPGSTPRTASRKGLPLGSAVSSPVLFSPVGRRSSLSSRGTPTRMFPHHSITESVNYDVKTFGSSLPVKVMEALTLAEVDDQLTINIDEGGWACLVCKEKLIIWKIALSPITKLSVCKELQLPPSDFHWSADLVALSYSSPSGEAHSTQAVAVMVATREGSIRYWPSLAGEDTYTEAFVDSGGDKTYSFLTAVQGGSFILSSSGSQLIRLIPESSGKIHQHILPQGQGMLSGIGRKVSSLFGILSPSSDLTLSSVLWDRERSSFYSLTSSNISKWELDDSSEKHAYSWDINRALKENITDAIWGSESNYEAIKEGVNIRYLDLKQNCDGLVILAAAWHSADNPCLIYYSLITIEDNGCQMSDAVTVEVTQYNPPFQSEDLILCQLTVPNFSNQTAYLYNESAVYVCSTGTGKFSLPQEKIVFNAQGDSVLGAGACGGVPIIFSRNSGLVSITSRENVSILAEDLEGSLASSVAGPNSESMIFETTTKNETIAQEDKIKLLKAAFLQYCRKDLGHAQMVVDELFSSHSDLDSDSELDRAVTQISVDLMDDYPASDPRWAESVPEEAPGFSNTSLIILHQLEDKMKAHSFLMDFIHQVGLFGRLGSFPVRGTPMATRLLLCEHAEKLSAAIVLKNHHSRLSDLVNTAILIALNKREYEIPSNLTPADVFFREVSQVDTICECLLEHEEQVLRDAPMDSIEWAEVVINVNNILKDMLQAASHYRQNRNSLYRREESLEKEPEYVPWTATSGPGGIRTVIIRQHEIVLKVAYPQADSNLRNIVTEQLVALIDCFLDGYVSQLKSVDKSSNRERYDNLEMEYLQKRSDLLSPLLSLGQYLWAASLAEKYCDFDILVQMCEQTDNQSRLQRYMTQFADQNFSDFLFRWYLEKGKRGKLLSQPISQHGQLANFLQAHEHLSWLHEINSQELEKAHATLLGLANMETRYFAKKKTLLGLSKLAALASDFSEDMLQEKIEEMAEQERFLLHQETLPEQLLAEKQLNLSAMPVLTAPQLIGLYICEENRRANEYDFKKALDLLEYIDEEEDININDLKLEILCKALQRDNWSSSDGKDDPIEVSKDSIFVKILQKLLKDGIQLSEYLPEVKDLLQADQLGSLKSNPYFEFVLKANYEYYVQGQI
UniProt P49757: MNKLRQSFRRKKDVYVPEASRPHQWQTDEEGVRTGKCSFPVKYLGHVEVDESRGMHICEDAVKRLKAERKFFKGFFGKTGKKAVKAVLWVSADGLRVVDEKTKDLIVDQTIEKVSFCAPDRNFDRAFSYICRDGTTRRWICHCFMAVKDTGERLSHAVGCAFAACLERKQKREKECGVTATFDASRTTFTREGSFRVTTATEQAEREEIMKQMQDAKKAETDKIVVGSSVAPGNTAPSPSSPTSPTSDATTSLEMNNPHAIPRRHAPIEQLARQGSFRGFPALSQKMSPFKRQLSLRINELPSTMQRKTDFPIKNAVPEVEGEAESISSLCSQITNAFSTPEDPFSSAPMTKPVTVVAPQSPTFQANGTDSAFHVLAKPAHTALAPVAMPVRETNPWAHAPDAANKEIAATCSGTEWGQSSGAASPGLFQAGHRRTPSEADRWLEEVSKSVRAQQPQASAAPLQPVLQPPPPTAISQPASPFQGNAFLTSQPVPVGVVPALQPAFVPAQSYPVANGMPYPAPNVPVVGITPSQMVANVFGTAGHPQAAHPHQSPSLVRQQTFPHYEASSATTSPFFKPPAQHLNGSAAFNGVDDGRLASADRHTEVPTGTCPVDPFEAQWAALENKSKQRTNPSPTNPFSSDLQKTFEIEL
UniProt Q9Y314: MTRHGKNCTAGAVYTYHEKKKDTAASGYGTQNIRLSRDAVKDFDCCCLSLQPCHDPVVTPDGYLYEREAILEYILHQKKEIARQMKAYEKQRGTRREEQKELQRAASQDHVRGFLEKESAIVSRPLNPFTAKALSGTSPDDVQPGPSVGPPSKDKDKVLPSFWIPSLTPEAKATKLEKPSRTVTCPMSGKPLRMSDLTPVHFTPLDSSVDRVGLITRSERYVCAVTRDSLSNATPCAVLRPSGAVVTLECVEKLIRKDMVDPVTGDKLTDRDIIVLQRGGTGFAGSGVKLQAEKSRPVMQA
UniProt Q9HBL8: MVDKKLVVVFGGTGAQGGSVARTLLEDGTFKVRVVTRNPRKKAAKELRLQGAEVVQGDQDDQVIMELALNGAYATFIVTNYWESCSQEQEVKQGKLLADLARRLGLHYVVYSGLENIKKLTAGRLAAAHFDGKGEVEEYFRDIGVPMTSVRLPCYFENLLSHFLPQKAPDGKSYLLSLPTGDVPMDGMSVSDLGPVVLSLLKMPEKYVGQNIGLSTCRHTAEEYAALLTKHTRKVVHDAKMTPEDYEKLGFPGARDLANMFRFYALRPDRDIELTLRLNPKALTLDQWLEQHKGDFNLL
UniProt Q9Y5B8, whole entry, looked up: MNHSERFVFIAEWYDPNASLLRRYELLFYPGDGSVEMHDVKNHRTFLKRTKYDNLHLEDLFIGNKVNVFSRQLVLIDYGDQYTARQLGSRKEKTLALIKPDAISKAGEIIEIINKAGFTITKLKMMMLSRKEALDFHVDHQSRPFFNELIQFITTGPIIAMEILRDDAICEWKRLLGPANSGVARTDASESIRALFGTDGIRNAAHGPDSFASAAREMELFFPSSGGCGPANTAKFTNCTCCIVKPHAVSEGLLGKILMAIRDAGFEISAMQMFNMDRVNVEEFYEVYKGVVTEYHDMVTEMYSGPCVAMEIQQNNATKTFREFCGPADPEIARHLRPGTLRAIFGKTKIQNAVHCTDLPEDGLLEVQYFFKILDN
UniProt Q96MF7: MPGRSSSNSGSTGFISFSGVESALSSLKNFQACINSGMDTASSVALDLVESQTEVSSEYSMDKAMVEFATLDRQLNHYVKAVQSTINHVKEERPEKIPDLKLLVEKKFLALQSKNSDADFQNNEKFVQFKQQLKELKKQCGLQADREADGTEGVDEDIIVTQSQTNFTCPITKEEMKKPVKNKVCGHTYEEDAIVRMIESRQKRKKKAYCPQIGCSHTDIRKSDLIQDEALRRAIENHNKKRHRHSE
UniProt Q9H857: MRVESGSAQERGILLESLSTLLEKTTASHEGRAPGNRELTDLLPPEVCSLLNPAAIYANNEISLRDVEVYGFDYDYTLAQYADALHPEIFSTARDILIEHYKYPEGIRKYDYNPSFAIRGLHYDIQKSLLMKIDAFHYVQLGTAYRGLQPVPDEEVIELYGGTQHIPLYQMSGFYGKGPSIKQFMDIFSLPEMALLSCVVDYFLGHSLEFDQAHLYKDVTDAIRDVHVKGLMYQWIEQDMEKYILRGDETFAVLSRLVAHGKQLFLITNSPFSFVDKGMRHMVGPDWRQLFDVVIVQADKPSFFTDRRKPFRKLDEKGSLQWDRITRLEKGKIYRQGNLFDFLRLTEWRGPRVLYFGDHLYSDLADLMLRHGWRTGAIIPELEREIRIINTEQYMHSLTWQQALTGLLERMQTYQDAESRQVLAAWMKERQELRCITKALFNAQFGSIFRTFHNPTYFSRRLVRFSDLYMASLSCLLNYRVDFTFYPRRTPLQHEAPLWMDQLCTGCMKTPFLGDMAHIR

Compound: O=C(O)c1ccc2c(c1)nc(Nc1cccc(Cl)c1)c1ccncc12 [silmitasertib]
Assay: log2 fold change, soluble protein after heating vs DMSO (PISA); higher = thermal stabilisation; K562 lysate, 10 uM; active = over 0.2 and 3.5 SD of the protein, either way, in both replicates (recomputed)
How it was run: (§1)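 Values give the log-two fold change in thermal stability against solvent controls, from duplicates. Crude K562 extract at 1 mg/mL protein, made by dounce homogenisation in PBS pH 7.4 with 1 mM MgCl2, was treated with 10 μM compound for 30 min. After 3 min heating across 48°C-58°C, aliquots were pooled, adjusted to 0.5% NP-40 at 4°C and centrifuged at 21,000xg for 90 min. The supernatant was measured by TMTpro 16plex LC-MS/MS with channel sums equalised.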

log2 fold change, inactive:
NOL7 (UniProt Q9UMY1) -0.031
NPLOC4 isoform 2 (UniProt Q8TAT6) -0.016
NUDT15 (UniProt Q9NV35) -0.077
NMNAT1 (UniProt Q9HAN9) 0.005
NTMT1 (UniProt Q9BV86) 0.026
NQO1 (UniProt P15559) 0.038
NUCB2 (UniProt P80303) -0.026
NUP153 (UniProt P49790) -0.016
NUDT16 (UniProt Q96DE0) -0.007
NOP10 (UniProt Q9NPE3) -0.074
NOA1 (UniProt Q8NC60) 0.049
NPC2 (UniProt P61916) -0.007
NSMCE3 (UniProt Q96MG7) -0.056
NUMBL (UniProt Q9Y6R0) 0.201
NTHL1 (UniProt P78549) -0.081
NUF2 (UniProt Q9BZD4) 0.017
NOP9 (UniProt Q86U38) 0.15
NMU (UniProt P48645) -0.064
NRBP2 (UniProt Q9NSY0) 0.01
NME1 isoform 2 (UniProt P15531) -0.093
NOC4L (UniProt Q9BVI4) 0.001
NUDT3 (UniProt O95989) -0.003
NOP53 (UniProt Q9NZM5) -0.01
NUP133 (UniProt Q8WUM0) 0.052
NUMB (UniProt P49757) -0.014
NOSIP (UniProt Q9Y314) -0.047
NMRAL1 (UniProt Q9HBL8) 0.047
NT5C3A (UniProt Q9H0P0) 0.026
NUP107 (UniProt P57740) 0.036
NUDT22 (UniProt Q9BRQ3) -0.11
NUDT19 (UniProt A8MXV4) -0.001
NPTN (UniProt Q9Y639) -0.031
NME7 (UniProt Q9Y5B8) -0.001
NSMCE2 (UniProt Q96MF7) 0.053
NSMAF (UniProt Q92636) 0.022
NOL9 (UniProt Q5SY16) 0.1
NUDT5 (UniProt Q9UKK9) -0.021
NT5DC2 isoform 2 (UniProt Q9H857) -0.019
NOC2L (UniProt Q9Y3T9) 0.031

Compound: O=C1NC(=O)C(c2cnc3ccccn23)=C1c1cn2c3c(cc(F)cc13)CN(C(=O)N1CCCCC1)CC2
Assay: as above
How it was run: as §1

log2 fold change, inactive:
NOL7 (UniProt Q9UMY1) -0.045
NPLOC4 isoform 2 (UniProt Q8TAT6) 0.018
NUDT15 (UniProt Q9NV35) -0.066
NMNAT1 (UniProt Q9HAN9) -0.026
NTMT1 (UniProt Q9BV86) 0.01
NQO1 (UniProt P15559) 0.023
NUCB2 (UniProt P80303) -0.007
NUP153 (UniProt P49790) -0.016
NUDT16 (UniProt Q96DE0) 0.031
NOP10 (UniProt Q9NPE3) -0.015
NOA1 (UniProt Q8NC60) 0.048
NPC2 (UniProt P61916) 0.049
NSMCE3 (UniProt Q96MG7) 0.008
NUMBL (UniProt Q9Y6R0) 0.021
NTHL1 (UniProt P78549) 0.032
NUF2 (UniProt Q9BZD4) 0.008
NOP9 (UniProt Q86U38) 0.037
NMU (UniProt P48645) 0.013
NRBP2 (UniProt Q9NSY0) 0.018
NME1 isoform 2 (UniProt P15531) 0.061
NOC4L (UniProt Q9BVI4) -0.006
NUDT3 (UniProt O95989) -0.079
NOP53 (UniProt Q9NZM5) 0.006
NUP133 (UniProt Q8WUM0) 0.011
NUMB (UniProt P49757) -0.066
NOSIP (UniProt Q9Y314) 0.002
NMRAL1 (UniProt Q9HBL8) -0.04
NT5C3A (UniProt Q9H0P0) 0.029
NUP107 (UniProt P57740) 0.035
NUDT22 (UniProt Q9BRQ3) 0.104
NUDT19 (UniProt A8MXV4) 0.02
NPTN (UniProt Q9Y639) 0.04
NME7 (UniProt Q9Y5B8) 0.007
NSMCE2 (UniProt Q96MF7) -0.041
NSMAF (UniProt Q92636) -0.053
NOL9 (UniProt Q5SY16) 0.001
NUDT5 (UniProt Q9UKK9) 0.02
NT5DC2 isoform 2 (UniProt Q9H857) 0
NOC2L (UniProt Q9Y3T9) 0.009
